Source: article doi:10.1101/2022.11.30.518523
No constants are given. Whether binding was seen depends on the method and setting. Binding calls can cover weak binding; strength is not graded here. For some of these results: Where a sequence is shown, tags or fusion partners need not be part of it.

Protein sequences, listed by entry. Tags and fused reporters are not part of them. Lines headed by an entry give the natural chain unless they say otherwise; changes in a name come on top.
UniProt P43298: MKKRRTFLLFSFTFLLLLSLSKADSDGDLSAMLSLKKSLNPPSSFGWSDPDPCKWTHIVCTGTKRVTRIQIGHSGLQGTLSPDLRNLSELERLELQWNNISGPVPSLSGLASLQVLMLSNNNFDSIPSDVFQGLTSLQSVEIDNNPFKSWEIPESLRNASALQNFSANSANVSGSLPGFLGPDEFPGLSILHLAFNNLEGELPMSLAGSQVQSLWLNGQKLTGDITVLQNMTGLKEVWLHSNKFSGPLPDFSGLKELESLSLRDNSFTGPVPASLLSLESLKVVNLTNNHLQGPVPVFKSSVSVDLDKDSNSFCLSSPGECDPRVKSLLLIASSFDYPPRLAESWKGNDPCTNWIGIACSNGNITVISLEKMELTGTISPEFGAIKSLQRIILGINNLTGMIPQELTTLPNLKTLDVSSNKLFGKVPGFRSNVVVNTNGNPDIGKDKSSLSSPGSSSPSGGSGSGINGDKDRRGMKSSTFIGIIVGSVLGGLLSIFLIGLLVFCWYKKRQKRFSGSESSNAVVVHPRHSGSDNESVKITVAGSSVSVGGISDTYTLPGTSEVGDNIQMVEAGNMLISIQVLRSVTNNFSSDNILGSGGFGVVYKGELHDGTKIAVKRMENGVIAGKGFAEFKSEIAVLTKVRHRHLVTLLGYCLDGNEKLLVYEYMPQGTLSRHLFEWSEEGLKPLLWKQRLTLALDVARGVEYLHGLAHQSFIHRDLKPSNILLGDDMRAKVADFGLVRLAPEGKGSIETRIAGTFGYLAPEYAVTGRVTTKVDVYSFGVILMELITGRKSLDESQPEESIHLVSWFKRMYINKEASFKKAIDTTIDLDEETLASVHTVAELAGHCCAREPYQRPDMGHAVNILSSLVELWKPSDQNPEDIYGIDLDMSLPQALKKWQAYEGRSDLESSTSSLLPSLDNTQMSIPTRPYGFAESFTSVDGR
UniProt Q9SIT1: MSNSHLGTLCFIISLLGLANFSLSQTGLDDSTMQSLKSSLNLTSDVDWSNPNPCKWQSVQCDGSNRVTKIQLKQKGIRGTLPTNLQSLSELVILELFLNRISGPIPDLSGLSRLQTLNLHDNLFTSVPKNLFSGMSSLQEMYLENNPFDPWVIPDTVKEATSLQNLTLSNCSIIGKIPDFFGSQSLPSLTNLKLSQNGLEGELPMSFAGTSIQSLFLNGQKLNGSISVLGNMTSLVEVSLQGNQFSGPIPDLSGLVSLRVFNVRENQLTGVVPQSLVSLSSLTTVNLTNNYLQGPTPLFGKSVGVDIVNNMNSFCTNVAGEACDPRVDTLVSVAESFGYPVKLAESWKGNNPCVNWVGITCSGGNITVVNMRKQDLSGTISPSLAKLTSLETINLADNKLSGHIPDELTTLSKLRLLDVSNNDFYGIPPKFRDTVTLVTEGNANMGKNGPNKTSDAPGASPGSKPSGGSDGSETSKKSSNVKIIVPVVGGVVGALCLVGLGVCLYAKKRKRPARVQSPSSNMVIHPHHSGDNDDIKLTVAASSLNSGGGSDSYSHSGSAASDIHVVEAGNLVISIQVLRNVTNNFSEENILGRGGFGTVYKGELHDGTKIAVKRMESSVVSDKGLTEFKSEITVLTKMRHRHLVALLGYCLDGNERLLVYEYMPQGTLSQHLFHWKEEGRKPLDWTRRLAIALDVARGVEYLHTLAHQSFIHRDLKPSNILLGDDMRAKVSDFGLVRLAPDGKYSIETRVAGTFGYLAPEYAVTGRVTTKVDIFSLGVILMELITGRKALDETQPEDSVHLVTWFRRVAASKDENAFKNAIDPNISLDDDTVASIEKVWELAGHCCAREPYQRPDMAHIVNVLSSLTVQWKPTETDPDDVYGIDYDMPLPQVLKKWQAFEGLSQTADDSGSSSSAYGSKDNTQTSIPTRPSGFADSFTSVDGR
UniProt Q9LK43: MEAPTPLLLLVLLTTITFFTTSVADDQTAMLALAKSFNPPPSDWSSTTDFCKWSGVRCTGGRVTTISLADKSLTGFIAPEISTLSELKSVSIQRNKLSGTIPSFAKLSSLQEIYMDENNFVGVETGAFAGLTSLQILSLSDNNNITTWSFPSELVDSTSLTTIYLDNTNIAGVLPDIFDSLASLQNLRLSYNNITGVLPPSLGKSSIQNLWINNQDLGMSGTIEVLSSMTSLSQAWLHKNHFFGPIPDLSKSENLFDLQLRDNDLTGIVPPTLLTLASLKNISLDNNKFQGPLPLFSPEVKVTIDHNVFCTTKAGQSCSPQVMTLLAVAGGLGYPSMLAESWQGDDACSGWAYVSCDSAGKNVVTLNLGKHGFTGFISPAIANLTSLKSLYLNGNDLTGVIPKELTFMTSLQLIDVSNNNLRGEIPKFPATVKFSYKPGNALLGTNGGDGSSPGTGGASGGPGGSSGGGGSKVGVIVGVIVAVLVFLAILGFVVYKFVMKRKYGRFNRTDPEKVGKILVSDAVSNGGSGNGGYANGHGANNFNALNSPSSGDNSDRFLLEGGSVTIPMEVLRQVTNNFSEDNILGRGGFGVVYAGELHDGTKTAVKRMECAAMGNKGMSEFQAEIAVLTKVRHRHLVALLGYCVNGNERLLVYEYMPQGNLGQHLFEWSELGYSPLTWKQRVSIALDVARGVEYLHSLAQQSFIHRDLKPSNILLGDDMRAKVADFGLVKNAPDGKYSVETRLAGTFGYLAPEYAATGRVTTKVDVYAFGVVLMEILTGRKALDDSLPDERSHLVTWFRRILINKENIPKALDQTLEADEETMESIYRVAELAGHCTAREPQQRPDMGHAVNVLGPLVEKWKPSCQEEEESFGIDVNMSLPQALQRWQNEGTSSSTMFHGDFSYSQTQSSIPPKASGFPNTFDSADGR

B1: GST-tagged PIN1L (hydrophilic loop of PIN1, 166-464 aa) (domain or fragment, UniProt Q9C6B8 166-464)
chain: PDTAGSIVSIHVDSDIMSLDGRQPLETEAEIKEDGKLHVTVRRSNASRSDIYSRRSQGLSATPRPSNLTNAEIYSLQSSRNPTPRGSSFNHTDFYSMMASGGGRNSNFGPGEAVFGSKGPTPRPSNYEEDGGPAKPTAAGTAAGAGRFHYQSGGSGGGGGAHYPAPNPGMFSPNTGGGGGTAAKGNAPVVGGKRQDGNGRDLHMFVWSSSASPVSDVFGGGGGNHHADYSTATNDHQKDVKISVPQGNSNDNQYVEREEFSFGNKDDDSKVLATDGGNNISNKTTQAKVMPPTSVMTRL

What was measured:
[1] = target: intracellular domain (C-terminus) of TMK1 (TMK1C), two-hybrid bait (Arabidopsis) (UniProt P43298); experiment: two-hybrid
[2] = target: intracellular domain (C-terminus) of TMK3 (TMK3C), two-hybrid bait (Arabidopsis) (UniProt Q9SIT1); experiment: two-hybrid
[3] = target: intracellular domain (C-terminus) of TMK4 (TMK4C), two-hybrid bait (Arabidopsis) (UniProt Q9LK43); experiment: two-hybrid
[4] = target: His-SUMO-TMK1C (C terminus of TMK1) (Arabidopsis) (UniProt P43298); experiment: pull-down

| Molecule | binding [1] | binding [2] | binding [3] | binding [4] |
| --- | --- | --- | --- | --- |
| hydrophilic loop of PIN1 (PIN1L), two-hybrid prey (from UniProt Q9C6B8) (domain or fragment) | binds | binds | binds | – |
| B1 | – | – | – | binds |
